PubChem BioAssay AID1508597 | Cure First – 2020
Shown is an unselected part of the about 2,100 reagents, under one of the conditions tested. 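Calls flag viability under 80% in either arm, not effects specific to rucaparib; the reference for percent is not stated.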 A number with no mark means an inactive call. Some reagents were tested in more than one well and are listed for each. Reagent sequences are not shown. Not given: the 100% reference.

- Purpose: 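Survival screen with siRNA in ovarian cancer cells derived from patients, with or without rucaparib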 (primary screen)
- Cell system: human ovarian carcinoma lines grown from tumours: OCI-P5x (papillary serous) and OCI-C5x (clear cell)
- Reagents: siRNA pool against human genes, 1.25 pmol siRNA per well
- Time to read-out: 72 h or 96 h, depending on the cell culture
- Challenge: rucaparib 20 µM (about IC30) or vehicle, present until read-out
- Rucaparib or vehicle: Vehicle
- Cell line: OCI-P5x (serous)
- Measurement: 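Luminescent ATP-based viability assay read 72 or 96 h after transfection, depending on culture, given as normalised percent viability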
- Scale: viability, normalised: higher = more viable cells remaining
- Call rule: 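Active when normalised viability falls below 80 percent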
- Meaning of the calls: active = viability under 80%; inactive = viability 80% or more

How did the screen score CCNH, technical replicate 1?
viability, normalised (%): 48.5 (active)

How did the screen score CCNH, technical replicate 2?
viability, normalised (%): 66.1 (active)

How did the screen score CCNH, technical replicate 3?
viability, normalised (%): 48.3 (active)

What did the screen give for TTK, technical replicate 1?
viability, normalised (%): 68.3 (active)

What did the screen give for TTK, technical replicate 2?
viability, normalised (%): 62.4 (active)

For TTK, technical replicate 3, how do the results read?
viability, normalised (%): 59.9 (active)

For PARP9, technical replicate 1, what does the deposit list?
viability, normalised (%): 41.2 (active)

With PARP9, technical replicate 2, what does the deposit list?
viability, normalised (%): 64.2 (active)

How did the screen score PARP9, technical replicate 3?
viability, normalised (%): 78.1 (active)

What is on record for RBBP4, technical replicate 1?
viability, normalised (%): 60.7 (active)

With RBBP4, technical replicate 2, how do the results read?
viability, normalised (%): 76.8 (active)

What did the screen give for RBBP4, technical replicate 3?
viability, normalised (%): 73.3 (active)

What is on record for GTF3C4, technical replicate 1?
viability, normalised (%): 49.1 (active)

For GTF3C4, technical replicate 2, what was measured?
viability, normalised (%): 41.9 (active)

For GTF3C4, technical replicate 3, how do the results read?
viability, normalised (%): 53.1 (active)

How did the screen score ZFP82, technical replicate 1?
viability, normalised (%): 90

How did the screen score ZFP82, technical replicate 2?
viability, normalised (%): 85.3

With ZFP82, technical replicate 3, what does the deposit list?
viability, normalised (%): 86.6

What is on record for POLQ, technical replicate 1?
viability, normalised (%): 61.9 (active)

What is on record for POLQ, technical replicate 1?
viability, normalised (%): 52.4 (active)

What did the screen give for POLQ, technical replicate 2?
viability, normalised (%): 67.5 (active)

What is on record for POLQ, technical replicate 2?
viability, normalised (%): 50.9 (active)

What is on record for POLQ, technical replicate 3?
viability, normalised (%): 76.9 (active)

How did the screen score POLQ, technical replicate 3?
viability, normalised (%): 65.1 (active)

What is on record for CENPE, technical replicate 1?
viability, normalised (%): 44.8 (active)

With CENPE, technical replicate 2, what does the deposit list?
viability, normalised (%): 35.8 (active)

What is on record for CENPE, technical replicate 3?
viability, normalised (%): 40.6 (active)

Which result is listed for CDYL2, technical replicate 1?
viability, normalised (%): 97.5

Which result is listed for CDYL2, technical replicate 2?
viability, normalised (%): 109

For CDYL2, technical replicate 3, what does the deposit list?
viability, normalised (%): 103

How did the screen score ASCC3, technical replicate 1?
viability, normalised (%): 64.3 (active)

How did the screen score ASCC3, technical replicate 2?
viability, normalised (%): 84.8

What did the screen give for ASCC3, technical replicate 3?
viability, normalised (%): 81.4

Which result is listed for WRNIP1, technical replicate 1?
viability, normalised (%): 105

How did the screen score WRNIP1, technical replicate 2?
viability, normalised (%): 90.8

With WRNIP1, technical replicate 3, what does the deposit list?
viability, normalised (%): 63.6 (active)

How did the screen score ERN2, technical replicate 1?
viability, normalised (%): 80.6

With ERN2, technical replicate 2, how do the results read?
viability, normalised (%): 80.1

For ERN2, technical replicate 3, what does the deposit list?
viability, normalised (%): 75.5 (active)

For PRKDC, technical replicate 1, what does the deposit list?
viability, normalised (%): 54.3 (active)

For PRKDC, technical replicate 1, what was measured?
viability, normalised (%): 80.7

How did the screen score PRKDC, technical replicate 2?
viability, normalised (%): 69.1 (active)

For PRKDC, technical replicate 2, what was measured?
viability, normalised (%): 77.2 (active)

Which result is listed for PRKDC, technical replicate 3?
viability, normalised (%): 52.1 (active)

Which result is listed for PRKDC, technical replicate 3?
viability, normalised (%): 68.8 (active)

6 entries from above, arranged by “viability, normalised (%)”, low to high.
GTF3C4, technical replicate 2: viability, normalised (%) = 41.9 (active)
GTF3C4, technical replicate 1: viability, normalised (%) = 49.1 (active)
GTF3C4, technical replicate 3: viability, normalised (%) = 53.1 (active)
RBBP4, technical replicate 3: viability, normalised (%) = 73.3 (active)
ZFP82, technical replicate 2: viability, normalised (%) = 85.3
ZFP82, technical replicate 1: viability, normalised (%) = 90
